The list does not hold the whole screen: it covers a few groups of compounds. Other doses and runs of a compound may be missing. T/C: endpoint of the treated group in % of that of the vehicle group. Schedules are NCI's codes, read here as Q, the interval in days (D) or hours (H), X, the number of doses. Some T/C values are followed by the survivors on the day toxicity was checked; without a count or a note in brackets, all were alive then. Some doses have a count of surviving animals in place of a T/C: the source holds a T/C of zero for them, seemingly a mark for toxic or unscored doses. Survivors were counted at the toxicity check; its day is shown where the source gives one, and later deaths do not show.

The test system of this assay is HT29 xenograft, nude mice, s.c., tumor weight T/C%. As to the kind of experiment: NCI In Vivo Anticancer Drug Screen. Data for tumor model HT29;CX-1 Human Adenocarcinoma (MER+) (subcutaneous) in NU/NU Swiss (nude) mice. The settings on record: T/C endpoint: optimum tumor weight change, schedule: Q04DX003 (ip), higher T/C = larger tumour; for T/C: evaluated on day 34. The procedure:
The antitumor activity of compounds was measured in mice bearing transplantable tumors. Survival or tumor size were measured and the results are expressed as the measurement made in the treated group (T) divided by the measurement made in the vehicle treated control group (C). The tumor model used in this assay is HT29;CX-1 Human Adenocarcinoma (MER+) (subcutaneous) in NU/NU Swiss (nude) mice

Turning to `CC1(C)CN1P(=O)(Nc1ncccn1)N1CC1(C)C` (stereo not drawn), the T/C is 51 % of control (dose: 50.0 mg/kg/injection, vehicle: suspension in saline); 38 % of control [4 of 5 alive on day 36] (dose: 100.0 mg/kg/injection, vehicle: suspension in saline); 54 % of control (dose: 200.0 mg/kg/injection, vehicle: suspension in saline). Where the note is “dose: 400.0 mg/kg/injection, vehicle: suspension in saline”, the survivor count was 3 of 5 on day 36.

Regarding `Nc1cc([As]=O)ccc1O` (stereo not drawn), the T/C runs as follows: (dose: 12.5 mg/kg/injection, vehicle: saline with Tween-80) 115 % of control; (dose: 25.0 mg/kg/injection, vehicle: saline with Tween-80) 104 % of control; (dose: 50.0 mg/kg/injection, vehicle: saline with Tween-80) 95 % of control; (dose: 100.0 mg/kg/injection, vehicle: saline with Tween-80) 97 % of control.

Source of the values: PubChem BioAssay AID202 (DTP/NCI, 2004).
